From publication PMC8549421
No constants are given. Whether binding was seen depends on the method and setting. In cells and extracts the contact can be indirect. Some results given as binding are weak or reduced against the parent protein; the word gives no strength.

The chains behind the UniProt entries cited, without tags or fusion partners.
UniProt P20649: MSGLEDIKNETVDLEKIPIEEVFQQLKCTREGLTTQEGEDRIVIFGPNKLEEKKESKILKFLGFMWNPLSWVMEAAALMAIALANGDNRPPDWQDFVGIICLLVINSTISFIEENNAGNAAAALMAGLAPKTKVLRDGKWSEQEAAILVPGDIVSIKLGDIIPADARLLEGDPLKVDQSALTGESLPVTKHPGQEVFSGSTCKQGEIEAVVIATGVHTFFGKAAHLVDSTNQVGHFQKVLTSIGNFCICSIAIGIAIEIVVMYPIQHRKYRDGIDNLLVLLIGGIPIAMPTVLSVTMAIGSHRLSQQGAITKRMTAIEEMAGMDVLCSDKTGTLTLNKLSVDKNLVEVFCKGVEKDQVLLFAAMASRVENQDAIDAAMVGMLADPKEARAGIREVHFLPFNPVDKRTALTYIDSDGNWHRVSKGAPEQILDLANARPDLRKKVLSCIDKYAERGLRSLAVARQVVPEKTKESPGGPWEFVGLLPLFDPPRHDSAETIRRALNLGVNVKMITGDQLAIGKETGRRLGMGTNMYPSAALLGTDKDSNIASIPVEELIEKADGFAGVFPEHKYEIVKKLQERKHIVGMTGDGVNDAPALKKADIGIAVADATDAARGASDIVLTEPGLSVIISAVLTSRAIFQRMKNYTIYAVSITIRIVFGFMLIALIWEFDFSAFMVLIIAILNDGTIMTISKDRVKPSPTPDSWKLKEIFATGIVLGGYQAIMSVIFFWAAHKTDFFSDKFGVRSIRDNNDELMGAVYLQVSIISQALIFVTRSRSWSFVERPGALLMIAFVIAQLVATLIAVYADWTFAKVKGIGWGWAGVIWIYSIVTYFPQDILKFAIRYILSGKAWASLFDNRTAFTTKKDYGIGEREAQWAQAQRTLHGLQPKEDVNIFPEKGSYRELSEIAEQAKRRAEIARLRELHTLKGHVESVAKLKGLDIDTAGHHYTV

B1: TMK1 (protein, UniProt P43298 24-942)
chain: DSDGDLSAMLSLKKSLNPPSSFGWSDPDPCKWTHIVCTGTKRVTRIQIGHSGLQGTLSPDLRNLSELERLELQWNNISGPVPSLSGLASLQVLMLSNNNFDSIPSDVFQGLTSLQSVEIDNNPFKSWEIPESLRNASALQNFSANSANVSGSLPGFLGPDEFPGLSILHLAFNNLEGELPMSLAGSQVQSLWLNGQKLTGDITVLQNMTGLKEVWLHSNKFSGPLPDFSGLKELESLSLRDNSFTGPVPASLLSLESLKVVNLTNNHLQGPVPVFKSSVSVDLDKDSNSFCLSSPGECDPRVKSLLLIASSFDYPPRLAESWKGNDPCTNWIGIACSNGNITVISLEKMELTGTISPEFGAIKSLQRIILGINNLTGMIPQELTTLPNLKTLDVSSNKLFGKVPGFRSNVVVNTNGNPDIGKDKSSLSSPGSSSPSGGSGSGINGDKDRRGMKSSTFIGIIVGSVLGGLLSIFLIGLLVFCWYKKRQKRFSGSESSNAVVVHPRHSGSDNESVKITVAGSSVSVGGISDTYTLPGTSEVGDNIQMVEAGNMLISIQVLRSVTNNFSSDNILGSGGFGVVYKGELHDGTKIAVKRMENGVIAGKGFAEFKSEIAVLTKVRHRHLVTLLGYCLDGNEKLLVYEYMPQGTLSRHLFEWSEEGLKPLLWKQRLTLALDVARGVEYLHGLAHQSFIHRDLKPSNILLGDDMRAKVADFGLVRLAPEGKGSIETRIAGTFGYLAPEYAVTGRVTTKVDVYSFGVILMELITGRKSLDESQPEESIHLVSWFKRMYINKEASFKKAIDTTIDLDEETLASVHTVAELAGHCCAREPYQRPDMGHAVNILSSLVELWKPSDQNPEDIYGIDLDMSLPQALKKWQAYEGRSDLESSTSSLLPSLDNTQMSIPTRPYGFAESFTSVDGR
B2: TMK1–mCherry (protein, UniProt P43298 24-942)
chain: B1 chain

How the values were obtained:
[1] = biological target: GFP–AHA1 (Arabidopsis thaliana) (UniProt P20649); experiment: co-IP; extracts of 4-week-old 35S::GFP-AHA1 plants (10 mM HEPES pH 7.5, 100 mM NaCl, 1 mM EDTA, 10% glycerol, 0.1% Triton X-100); GFP-Trap; blot with anti-TMK1 or anti-TMK4 antibodies
[2] = biological target: AHA1–GFP (Arabidopsis thaliana) (UniProt P20649); experiment: FRET or BRET; sensitized-emission FRET on the plasma membrane of single protoplasts held in a microfluidics chip; 100 nM NAA or mock buffer applied at 25 s; 5 s per frame

Row | Binder | binding [1] | binding [2]
1 | B1 | binds | –
2 | B2 | – | binds
